# According to patent publication US20070149483A1, “Methods and compounds for modulating triglyceride and vldl secretion” (priority 2003, published 2007):
# No dose or concentration is given here for some results.
# System: McA-RH7777 cells stably expressing human apoB100
# Assay: [14C]oleate / [3H]EPA labelling and chase: distribution in PC, PE, TG and secretion
# Assay type: cell-based, rat
smiles,measurement,value
"CCCCCCCC/C=C\CCCCCCCC(=O)O [[^14C]oleate, [^14C]oleic acid]",total radioactivity incorporated at the end of 2-h labelling,2.4×10^6 cpm
